Assay: general procedure: Fmoc solid-phase peptide synthesis; Rink amide resin (0.46 meq/g); DCC/6-Cl-HOBt
Settings: whole synthesis, RP-HPLC

| Substance | final HPLC purity [%] | crude HPLC purity [%] |
| --- | --- | --- |
| (FKARRWQWRMKKLGA)2K-Ahx | 88 |  |
| ^17FKARRWQWRMKKLGA^31 | 95 |  |
| ^20RRWQWRMKKLG^30 | 95 |  |
| (RRWQWR)2K-Ahx | 86 |  |
| ^20RRWQWR^25 | 92 | 40 |
| (RRWQWRMKKLG)2K-Ahx | 86 |  |

Reference: PMC6151437 (Molecules : A Journal of Synthetic Chemistry and Natural …, 2017)
